The assay addresses EndoE (residues 56-837) (Enterococcus faecalis) (UniProt Q6U890). As to the kind of experiment: SEC-SAXS; in-line size-exclusion chromatography SAXS, Shodex KW403-4F column, 50 uL of protein at 10 mg mL^-1 injected, 50 mM Tris-HCl pH 7.5, 100 mM NaCl, 2% v/v glycerol; both purified. In general terms: SEC sorts molecules by how far they enter the pores of the column.

Results are given in words; binding and its absence hold for the method and conditions named.

B1: EndoE (residues 56-837) (enzyme, UniProt Q6U890 56-837)
chain: NEPTQEKHFMVYYRAWRDKTMQGVNTTLPDENWLTMHDIPYGIDIVNVFSYVPKGQEALAQPFYDTLKNEYAPALHARGVRLVRGIDYSELLKVPYAGTTPTEAEFDAYAKELLTKFVDDLGIDGLDIDMETRPSEKDIVLSNGVIRALSKYIGPKSGTDRPFLYDTNAEYLPPLQDVSDCFDFLAYQQYGSDDQRTQRALNNLSPVLNGERFVPGLTFPEEQDRNRWYDTKEPYMESNMYKVARYSYENNLGGMFLYALDRDGRTYNEDDLNQIKPSNLLWTKTAIAESKGVSLAEMKAAAQHYLKRISYANTDLEAQNKAAEAVTQATTLYDVNKAILGGDYGQGLSNTYDAELEKGLLAIDLTTLYRALDQAVAAIEKAESYTPETIQALQTTKESVATELAGKTYTAAQVTTWQTEVQTALDNLKEKQTQPLKSVFSIDAGRKYFSVEQLEELVAKASQNGYTDVQLILGNDGLRFILDDMSVNVNGKKYNHNRVSKAIQRGNNAYYNDPNGNALTQKEMDRLLAFAKARNINIIPVINSPGHMDALLVAMEKLAIKNPAFDGSKRPVDLGNQKAVNFTKAIISKYVAYFSAHSEIFNFGGDEYANDVDTGGWAKLQSSGRYKDFVAYANDLAKIIKDAGMQPMSFNDGIYYNSDDSFGTFDPEIIISYWTAGWSGYDVAKPEYFVQKGHKIFNTNDAWYWVAGNVDSGIYQYDDALANMSKKAFTDVPAGSPNLPIIGSIQCVWYDDPRRDYDFERIYTLMDTFSENYREYMVVKNH
With B1, the binding result is on record as “no binding (tested: 10 mg mL^-1 injected)”.

Values taken from paper PMC8894350, “Mechanism of cooperative N-glycan processing by the multi-modular endoglycosidase EndoE” (Nature Communications, 2022).
